Measured values published in PMC5336696, “Structural basis for potency differences between GDF8 and GDF11” (BMC Biology, 2017).
These are yes or no findings as the source states them, for the method shown. A result given as binding can be weak or reduced; the word gives no strength.

Biological target: T1, mature GDF8 of the wt latent complex (human) (UniProt O14793)
T1 sequence: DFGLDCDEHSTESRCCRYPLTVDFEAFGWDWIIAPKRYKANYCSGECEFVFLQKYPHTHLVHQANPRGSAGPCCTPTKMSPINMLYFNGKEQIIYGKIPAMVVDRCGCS
Experiment: SEC; latent prodomain:mature ligand complex from concentrated conditioned media of HEK293T cells co-transfected with furin, Superdex S200; peak analysed by SDS-PAGE

Substance: wt GDF8 prodomain (of the latent complex) (human) (domain or fragment)
- binding: binds
